Data reported in the M2OR odorant receptor database.
Only a part is listed here, and it is no random draw. The calls were merged from several studies; some rest on single wells. The list shows a part of the results.

Chains of the proteins cited; added tags and fusions are not shown. A line that says so, or that is headed by a name, gives the form on record, which may keep a tag or linker.
UniProt Q7TR79, as listed by the source: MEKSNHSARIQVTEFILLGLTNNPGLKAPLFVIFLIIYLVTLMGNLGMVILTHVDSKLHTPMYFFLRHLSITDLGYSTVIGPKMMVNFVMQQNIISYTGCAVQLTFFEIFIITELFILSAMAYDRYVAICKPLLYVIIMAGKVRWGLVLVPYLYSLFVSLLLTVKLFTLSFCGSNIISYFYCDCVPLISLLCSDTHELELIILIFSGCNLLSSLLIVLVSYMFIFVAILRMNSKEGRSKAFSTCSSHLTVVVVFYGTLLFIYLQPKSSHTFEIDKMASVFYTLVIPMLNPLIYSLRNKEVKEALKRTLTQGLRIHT
UniProt Q7TRX0, as listed by the source: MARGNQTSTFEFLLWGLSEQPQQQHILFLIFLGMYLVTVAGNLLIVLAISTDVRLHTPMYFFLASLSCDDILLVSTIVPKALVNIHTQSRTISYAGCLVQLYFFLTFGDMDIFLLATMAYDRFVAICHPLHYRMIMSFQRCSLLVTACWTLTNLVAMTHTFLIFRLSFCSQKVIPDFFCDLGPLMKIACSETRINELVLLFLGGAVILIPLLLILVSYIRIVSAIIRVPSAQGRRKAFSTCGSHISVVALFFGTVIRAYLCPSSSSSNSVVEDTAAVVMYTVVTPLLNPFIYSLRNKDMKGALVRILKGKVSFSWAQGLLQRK
UniProt Q8VF43, as listed by the source: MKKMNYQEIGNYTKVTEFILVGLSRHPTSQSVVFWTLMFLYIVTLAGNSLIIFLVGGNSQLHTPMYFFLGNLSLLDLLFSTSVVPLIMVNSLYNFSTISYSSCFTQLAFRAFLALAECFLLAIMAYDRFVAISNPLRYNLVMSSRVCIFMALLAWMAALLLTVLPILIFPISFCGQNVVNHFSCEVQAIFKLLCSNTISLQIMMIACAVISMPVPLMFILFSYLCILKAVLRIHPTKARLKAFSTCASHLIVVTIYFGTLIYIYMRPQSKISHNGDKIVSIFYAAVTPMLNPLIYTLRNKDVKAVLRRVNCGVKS
UniProt Q8VF52, as listed by the source: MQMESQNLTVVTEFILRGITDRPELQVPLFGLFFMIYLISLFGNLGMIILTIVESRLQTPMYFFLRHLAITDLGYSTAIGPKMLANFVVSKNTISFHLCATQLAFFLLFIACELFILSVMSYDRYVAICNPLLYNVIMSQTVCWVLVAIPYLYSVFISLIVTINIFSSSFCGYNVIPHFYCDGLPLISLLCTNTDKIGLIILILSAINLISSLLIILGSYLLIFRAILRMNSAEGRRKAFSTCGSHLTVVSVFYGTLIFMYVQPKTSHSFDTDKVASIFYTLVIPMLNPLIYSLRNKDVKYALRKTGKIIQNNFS
UniProt Q8VFM8, as listed by the source: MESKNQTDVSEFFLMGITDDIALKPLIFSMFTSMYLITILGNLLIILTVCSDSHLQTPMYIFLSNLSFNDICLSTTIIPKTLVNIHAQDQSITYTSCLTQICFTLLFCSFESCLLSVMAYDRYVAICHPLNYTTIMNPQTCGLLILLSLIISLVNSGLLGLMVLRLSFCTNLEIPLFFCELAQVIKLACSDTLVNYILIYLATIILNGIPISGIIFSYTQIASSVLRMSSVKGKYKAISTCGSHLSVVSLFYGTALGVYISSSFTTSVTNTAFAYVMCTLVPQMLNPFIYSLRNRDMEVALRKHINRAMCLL
UniProt Q8VFP5, as listed by the source: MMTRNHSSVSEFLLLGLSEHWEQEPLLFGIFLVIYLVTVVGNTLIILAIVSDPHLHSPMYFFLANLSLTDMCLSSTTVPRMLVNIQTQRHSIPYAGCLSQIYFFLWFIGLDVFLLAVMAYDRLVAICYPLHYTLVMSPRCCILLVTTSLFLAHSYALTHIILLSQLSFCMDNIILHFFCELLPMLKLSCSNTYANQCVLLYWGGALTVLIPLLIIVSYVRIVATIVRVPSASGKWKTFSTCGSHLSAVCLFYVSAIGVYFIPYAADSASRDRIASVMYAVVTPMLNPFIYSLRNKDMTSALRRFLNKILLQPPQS
UniProt Q8VG01, as listed by the source: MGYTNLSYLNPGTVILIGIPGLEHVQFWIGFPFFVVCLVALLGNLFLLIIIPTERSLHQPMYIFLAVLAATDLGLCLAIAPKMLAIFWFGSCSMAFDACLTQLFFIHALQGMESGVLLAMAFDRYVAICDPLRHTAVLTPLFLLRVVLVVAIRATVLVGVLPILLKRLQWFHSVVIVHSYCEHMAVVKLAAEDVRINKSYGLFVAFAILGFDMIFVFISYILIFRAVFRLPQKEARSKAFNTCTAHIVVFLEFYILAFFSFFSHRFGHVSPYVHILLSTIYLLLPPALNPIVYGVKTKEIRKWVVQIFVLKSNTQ
UniProt Q8VG27, as listed by the source: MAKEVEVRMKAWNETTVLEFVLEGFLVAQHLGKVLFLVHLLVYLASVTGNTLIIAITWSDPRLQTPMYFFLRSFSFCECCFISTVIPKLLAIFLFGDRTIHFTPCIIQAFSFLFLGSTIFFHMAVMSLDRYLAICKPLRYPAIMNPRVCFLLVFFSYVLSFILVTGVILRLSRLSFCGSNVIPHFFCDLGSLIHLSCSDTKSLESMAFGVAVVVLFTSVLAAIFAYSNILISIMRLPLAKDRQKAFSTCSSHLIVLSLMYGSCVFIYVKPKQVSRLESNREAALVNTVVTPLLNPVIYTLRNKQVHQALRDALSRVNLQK
UniProt Q8VG53, as listed by the source: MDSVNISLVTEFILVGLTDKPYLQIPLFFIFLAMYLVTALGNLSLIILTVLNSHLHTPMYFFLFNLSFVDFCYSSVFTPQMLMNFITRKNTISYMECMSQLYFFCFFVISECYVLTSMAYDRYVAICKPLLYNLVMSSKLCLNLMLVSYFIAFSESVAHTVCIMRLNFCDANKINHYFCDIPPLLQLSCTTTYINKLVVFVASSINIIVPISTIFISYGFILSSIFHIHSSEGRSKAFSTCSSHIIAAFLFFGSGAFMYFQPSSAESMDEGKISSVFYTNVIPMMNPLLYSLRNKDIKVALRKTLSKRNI
UniProt Q8VG64, as listed by the source: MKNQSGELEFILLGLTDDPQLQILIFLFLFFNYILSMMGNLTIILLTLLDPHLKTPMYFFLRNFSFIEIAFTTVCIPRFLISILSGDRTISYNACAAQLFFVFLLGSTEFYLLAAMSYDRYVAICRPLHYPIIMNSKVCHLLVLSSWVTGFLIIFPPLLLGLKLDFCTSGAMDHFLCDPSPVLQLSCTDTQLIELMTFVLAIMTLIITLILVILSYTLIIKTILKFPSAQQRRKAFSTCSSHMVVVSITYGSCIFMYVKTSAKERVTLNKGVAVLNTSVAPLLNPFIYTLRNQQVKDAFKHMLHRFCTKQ
UniProt Q8VGB9, as listed by the source: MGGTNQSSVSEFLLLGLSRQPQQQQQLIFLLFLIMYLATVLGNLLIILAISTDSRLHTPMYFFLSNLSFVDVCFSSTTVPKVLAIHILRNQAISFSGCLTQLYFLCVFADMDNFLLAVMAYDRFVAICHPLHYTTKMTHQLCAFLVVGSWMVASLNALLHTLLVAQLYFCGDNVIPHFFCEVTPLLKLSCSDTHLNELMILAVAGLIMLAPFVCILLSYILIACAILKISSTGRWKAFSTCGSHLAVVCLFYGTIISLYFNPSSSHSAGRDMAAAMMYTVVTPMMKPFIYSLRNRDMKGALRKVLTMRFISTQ
UniProt Q8VGC6, as listed by the source: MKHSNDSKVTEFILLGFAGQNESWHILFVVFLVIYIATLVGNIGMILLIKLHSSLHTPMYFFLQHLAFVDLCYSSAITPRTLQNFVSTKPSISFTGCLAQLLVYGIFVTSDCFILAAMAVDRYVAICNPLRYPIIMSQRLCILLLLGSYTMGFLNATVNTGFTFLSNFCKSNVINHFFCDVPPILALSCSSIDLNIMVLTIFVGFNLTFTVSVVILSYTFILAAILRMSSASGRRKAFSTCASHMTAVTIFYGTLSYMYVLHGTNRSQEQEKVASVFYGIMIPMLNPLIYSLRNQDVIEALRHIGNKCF
UniProt Q8VGJ3, as listed by the source: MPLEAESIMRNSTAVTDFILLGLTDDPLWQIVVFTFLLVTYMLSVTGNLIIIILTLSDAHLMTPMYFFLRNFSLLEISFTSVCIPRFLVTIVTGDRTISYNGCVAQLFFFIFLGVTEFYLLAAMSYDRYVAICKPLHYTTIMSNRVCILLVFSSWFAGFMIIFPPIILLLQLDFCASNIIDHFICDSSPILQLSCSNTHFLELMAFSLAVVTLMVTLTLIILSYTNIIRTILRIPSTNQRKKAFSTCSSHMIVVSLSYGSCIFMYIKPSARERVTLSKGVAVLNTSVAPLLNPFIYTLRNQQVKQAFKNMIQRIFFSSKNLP
UniProt Q8VGL0, as listed by the source: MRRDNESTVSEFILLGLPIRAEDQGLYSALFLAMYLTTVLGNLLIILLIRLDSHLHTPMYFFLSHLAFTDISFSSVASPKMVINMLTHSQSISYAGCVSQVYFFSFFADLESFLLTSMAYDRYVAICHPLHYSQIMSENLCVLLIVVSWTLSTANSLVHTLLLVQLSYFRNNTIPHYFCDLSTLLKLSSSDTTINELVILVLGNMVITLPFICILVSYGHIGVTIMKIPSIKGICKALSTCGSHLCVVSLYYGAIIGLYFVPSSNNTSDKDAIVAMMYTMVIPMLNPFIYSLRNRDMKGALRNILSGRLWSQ
UniProt Q8VGU3, as listed by the source: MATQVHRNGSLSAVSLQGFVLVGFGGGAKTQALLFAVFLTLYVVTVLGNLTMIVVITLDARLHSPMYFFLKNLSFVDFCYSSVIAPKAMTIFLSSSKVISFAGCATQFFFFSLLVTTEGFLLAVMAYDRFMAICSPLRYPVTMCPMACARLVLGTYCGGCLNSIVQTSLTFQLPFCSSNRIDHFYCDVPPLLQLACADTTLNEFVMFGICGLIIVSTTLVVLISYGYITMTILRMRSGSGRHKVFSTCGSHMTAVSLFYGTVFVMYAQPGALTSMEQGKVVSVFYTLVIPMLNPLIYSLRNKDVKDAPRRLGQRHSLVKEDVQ
UniProt Q8VGV7, as listed by the source: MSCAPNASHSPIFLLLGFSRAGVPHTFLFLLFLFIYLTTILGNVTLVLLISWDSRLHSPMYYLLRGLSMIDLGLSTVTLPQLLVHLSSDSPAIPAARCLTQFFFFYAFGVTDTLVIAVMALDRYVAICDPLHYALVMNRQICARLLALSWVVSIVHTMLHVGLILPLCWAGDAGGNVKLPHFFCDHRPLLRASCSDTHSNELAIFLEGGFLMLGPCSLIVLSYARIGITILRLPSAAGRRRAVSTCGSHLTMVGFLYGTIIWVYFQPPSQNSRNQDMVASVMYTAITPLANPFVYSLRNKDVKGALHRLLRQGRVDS
UniProt Q8VGX3, as listed by the source: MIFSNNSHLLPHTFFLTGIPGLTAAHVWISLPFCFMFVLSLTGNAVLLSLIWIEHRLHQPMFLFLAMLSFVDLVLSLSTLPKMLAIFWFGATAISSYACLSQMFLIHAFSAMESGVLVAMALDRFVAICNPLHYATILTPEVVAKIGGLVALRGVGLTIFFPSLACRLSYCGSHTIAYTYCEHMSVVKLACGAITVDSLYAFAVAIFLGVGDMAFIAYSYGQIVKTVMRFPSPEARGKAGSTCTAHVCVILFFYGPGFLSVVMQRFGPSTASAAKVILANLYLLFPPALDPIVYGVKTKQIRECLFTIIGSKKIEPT
UniProt Q8VGX5, as listed by the source: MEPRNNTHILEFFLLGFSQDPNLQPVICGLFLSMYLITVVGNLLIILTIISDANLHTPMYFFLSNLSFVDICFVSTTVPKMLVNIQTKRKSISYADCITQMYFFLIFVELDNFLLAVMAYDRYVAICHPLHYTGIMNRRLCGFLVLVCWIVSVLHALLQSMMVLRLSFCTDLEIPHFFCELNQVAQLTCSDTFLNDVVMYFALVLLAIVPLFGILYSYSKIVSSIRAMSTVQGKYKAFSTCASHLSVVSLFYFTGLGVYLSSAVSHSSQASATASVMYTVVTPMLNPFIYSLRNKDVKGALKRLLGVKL
UniProt Q8VGZ2, as listed by the source: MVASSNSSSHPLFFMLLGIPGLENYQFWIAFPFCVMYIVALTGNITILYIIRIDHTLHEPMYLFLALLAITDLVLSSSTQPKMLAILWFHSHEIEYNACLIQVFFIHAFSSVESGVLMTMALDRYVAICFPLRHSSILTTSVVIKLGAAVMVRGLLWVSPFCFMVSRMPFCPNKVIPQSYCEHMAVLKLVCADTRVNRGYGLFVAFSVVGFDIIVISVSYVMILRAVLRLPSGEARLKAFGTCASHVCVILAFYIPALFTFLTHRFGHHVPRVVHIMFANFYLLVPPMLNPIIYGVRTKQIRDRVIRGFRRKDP
UniProt Q8VGZ7, as listed by the source: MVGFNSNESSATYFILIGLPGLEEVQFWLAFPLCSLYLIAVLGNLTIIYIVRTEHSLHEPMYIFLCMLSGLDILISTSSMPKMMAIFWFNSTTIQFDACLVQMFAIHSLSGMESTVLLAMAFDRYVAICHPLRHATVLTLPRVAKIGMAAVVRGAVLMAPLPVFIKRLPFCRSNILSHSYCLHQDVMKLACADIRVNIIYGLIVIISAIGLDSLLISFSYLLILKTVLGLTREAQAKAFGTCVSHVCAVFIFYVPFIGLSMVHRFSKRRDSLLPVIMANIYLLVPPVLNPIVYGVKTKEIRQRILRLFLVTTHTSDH

Tests used:
Conditions in all cases: stereoisomer not certain
[1] = target: UniProt Q7TR79
Method in brief: (§1)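 Assay methods differ from source to source, frequently being transient luciferase assays in mammalian cell lines. For each receptor–molecule pair, the label responsive (active) applies when the original authors judged the measured signal statistically different from baseline, and non-responsive (inactive) applies otherwise.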

[2] = target: UniProt Q7TRX0
Method in brief: as §1

[3] = target: UniProt Q8VF43
Method in brief: as §1

[4] = target: UniProt Q8VF52
Method in brief: as §1

[5] = target: UniProt Q8VFM8
Method in brief: as §1

[6] = target: UniProt Q8VFP5
Method in brief: as §1

[7] = target: UniProt Q8VG01
Method in brief: as §1

[8] = target: UniProt Q8VG27
Method in brief: as §1

[9] = target: UniProt Q8VG53
Method in brief: as §1

[10] = target: UniProt Q8VG64
Method in brief: as §1

[11] = target: UniProt Q8VGB9
Method in brief: as §1

[12] = target: UniProt Q8VGC6
Method in brief: as §1

[13] = target: UniProt Q8VGJ3
Method in brief: as §1

[14] = target: UniProt Q8VGL0
Method in brief: as §1

[15] = target: UniProt Q8VGU3
Method in brief: as §1

[16] = target: UniProt Q8VGV7
Method in brief: as §1

[17] = target: UniProt Q8VGX3
Method in brief: as §1

[18] = target: UniProt Q8VGX5
Method in brief: as §1

[19] = target: UniProt Q8VGZ2
Method in brief: as §1

[20] = target: UniProt Q8VGZ7
Method in brief: as §1

Measured: odorant receptor agonist call

CCC(C)=O
inactive: [1] | [2] | [3] | [4] | [5] | [6] | [7] | [8] | [9] | [10] | [11] | [12] | [13] | [14] | [15] | [16] | [17] | [18] | [19] | [20]

CCOc1cc(C=O)ccc1O
inactive: [1] | [2] | [3] | [4] | [5] | [6] | [7] | [8] | [9] | [10] | [11] | [12] | [13] | [14] | [15] | [16] | [17] | [18] | [19] | [20]
